Reference: patent US20120045392A1
Results are given in words; binding and its absence hold for the method and conditions named. Some binding calls cover weakened binding; strength is not graded here.

Assays:
[1] = target: pyro-Glu(3-40/42)-Aβ; experiment: immunostaining of APPswe/PS1dE9 mouse brain sections, PGA5 at 1:100 (FIG. 3)
[2] = target: pyro-Glu(3-40/42) fibrils; experiment: summary of SPR / Europium ELISA, fibrils
[3] = target: pyro-Glu(3-40/42)-Aβ; experiment: SPR / Europium ELISA
[4] = target: pyro-Glu(3-40/42)-Aβ; experiment: summary of SPR / Europium ELISA, monomers
[5] = target: pyro-Glu(3-40/42) fibrils; experiment: SPR / Europium ELISA, fibrils
[6] = target: pyro-Glu(3-40/42)-Aβ; experiment: SPR / Europium ELISA, monomers

Measured: binding

B1: PGA 5 (antibody, IgG1, V domains shown)
VH: EVKLVESGGGLVQPGGSLRLSCVTSGFTFTENYMSWVRQPPGKALEWLGFIRNKANGYTTEYSASVKGRFTISRDNSQSILYLQMNTLRAEDSATYYCARDWDYGSSHAMDYWGQGTSVTVSS
VL: DILLTQSPAILSVSPGERVSFSCRASQNIGTSMHWFQQRTNGSPRLLIKYASESVSGIPSRFSGSGSGTDFTLSINSVESGDIADYYCQQSNSWPFTFGSGTKLEI
binds: all assays above
